Results are given in words; binding and its absence hold for the method and conditions named. In cells and extracts the contact can be indirect. Some results given as binding are weak or reduced against the parent protein; the word gives no strength.
Biological target: ERp29 (ER protein of 29 kDa; mouse, Min-6 insulinoma cells) (mouse (endogenous in Min-6)) (UniProt P57759)
Test: co-IP; Min-6 cells lysed under non-denaturing conditions (RIPA without SDS or Thermo lysis buffer); 500 ug lysate protein, 10 ul primary antibody 1 h at room temperature, Protein G PLUS agarose 2 h; precipitate read by SDS-PAGE and immunoblot

binding: binds
B1: Sec24D (mouse, Min-6 insulinoma cells) (protein, UniProt Q6NXL1 1-1032)
chain: MSQQGYVATPPYSQSQPGMGISPPHYGHYGDPSHASSPPGVMKPLGPSAAPSGMLPPGPLPPGPPQFGPNGAHTPGHPPQRFPGPPPVNSVAPSYASGQTLPQSSYPGPGSTSSVTQLGSQFSSMQINSYGVGATPQSQGPPGPQSAGAFQGPPQPAQPSILQPGHQVPPPPPTALNGPGASPMSPPTHRQDGLPGPAPLNAQYQPPPPPGQTLGPGYPPQQATNYGPQMGGAQMSYPGGFPGGPAQMAGPAPQLQRKLDPDSIPSPIQVIENDRATRGGQVYTTNTRGQVPPLVTTECVIQDQGHSSPRYIRCTTYCFPCTSDMAKQAQIPLAAVIKPFADIPPNETPLYLVNHGESGPVRCNRCKAYMCPFMQFIEGGRRYQCGFCSCVNEVPPFYFQHLDHIGRRLDHYEKPELSLGSYEYVATLDYCRKNKPPSPPAFIFMIDVSYSNIKNGLVKLICEELKTALKRLPKEEHEETSAIRVGFITYNKVLHFFNVKSNLAQPQMMVVTDVGEVFVPLLDGFLVNYEESQSVIHNLLDQIPEMFADSNENETVFAPVIQAGMEALKAAECPGKLFIFHSSLPTAEAPGKLKNRDDKKLVNTDKEKILFQPQTAVYESLAKDCVANSCSVTLFLFPSQFVDVASLGLVPLLTGGTLYKYNVFQIHSDSQRFLTDLRNDIEKKIGFDAIMRVRTSTGFRATDFFGGIFMNNTTDVEMAAIDCDKAVTVEFKHDDKLSEDVGALIQCAVLYTTISGQRRLRIHNLALNCSTQLADLYKSCETDALINFFAKSAFKAVLNQPLKAIREILVNQTAHMLACYRKHCASPSAASQLILPDSMKVLPVYMNSLLKNCVLLSRSEISPDERAYQRQLVMTMGVADSQLFFYPLLLPIHTLDVKSAALPPAVRCSESRLSEEGIFLLANGLNMFLWFGVGSPPELIQGIFNVPSFAHINTDMTSLPEVGSPHSQQLRMIMNNIQQKKPYSMKLIVVKQREQREMAFRQFLVEDKGLYGGSSYVDFLCCVHKEICQLLN
